Test: general procedure: solution-phase peptide synthesis
Details: TFA salt

| Substance | step yield (coupling step) [%] | step yield (late stage modification step) [%] |
| --- | --- | --- |
| Boc-Glu(Gly3)-Thia | 49 |  |
| Boc-Glu(Gly5)-Thia | 86 |  |
| H-Glu(Gly3)Thia *TFA |  | 94 |
| H-Glu(Gly5)Thia *TFA |  | 98 |

Source: US7335645B2 (Probiodrug AG, priority 1999, dated 2008)
